Some of the results follow. Values are raw readings; no control value is given beside them.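 Primary screen: polymyxin B was added at a level permeabilizing Salmonella outer membranes while sparing inner membranes. DMSO wells, both with and without polymyxin B, established maximum growth. Plate-to-plate variation meant each plate was ranked on its own, and the lowest-OD600 compounds were selected as hits.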

In the assay the test system is Salmonella enterica serovar Typhimurium SL1344. Nature of the assay: bacterial growth OD600 after 18 h with compound and polymyxin B; higher = more bacterial growth (less inhibition). Particulars: 50 µM, Mueller-Hinton broth.

For the compound `CN(CC(=O)NC1CCCN(c2ccc(C(F)(F)F)cn2)C1)Cc1cccnc1` (stereo unspecified), where the note is “polymyxin B 1 µg/mL”, the “bacterial growth OD600” value was found to be 1.03. Turning to `COc1cccc(CC2(CO)CCCN(Cc3ccc(OC)c(C)c3OC)C2)c1` (stereo unspecified), the “bacterial growth OD600” value (polymyxin B 1 µg/mL) was 1.19. Turning to `CCC1CN(Cc2ccccc2O)Cc2cc(OC)ccc2O1` (stereo unspecified), the “bacterial growth OD600” value (polymyxin B 0.75 µg/mL) was 0.737. With `CN(Cc1ccccc1Cl)C(=O)c1cn(CCC2CCCCC2)nn1`, the “bacterial growth OD600” value (polymyxin B 1 µg/mL) stood at 0.824. For the compound `COC(=O)C1CCN(c2nc(CN3CCCC3c3nccs3)nc3cc(OC)c(OC)cc23)CC1` (stereo unspecified), the “bacterial growth OD600” value (polymyxin B 0.75 µg/mL) amounted to 0.844.

For the compound `O=C(c1cc(Cn2ccc3ccccc32)[nH]n1)N1CCCCCC1`, for the setting “polymyxin B 1 µg/mL”, the “bacterial growth OD600” value was 0.813. Take `O=S(=O)(Nc1cccc(N2CCC(NCC3OCCc4ccccc43)CC2)c1)c1ccc(F)cc1` (stereo unspecified): the “bacterial growth OD600” value (polymyxin B 0.75 µg/mL) was 0.977. Take `CC#CCN1C(=O)NC(CCc2ccccc2)(C2CCN(Cc3cnn(-c4ccccc4)c3)CC2)C1=O` (stereo unspecified): the “bacterial growth OD600” value (polymyxin B 0.75 µg/mL) amounted to 0.803. Still for that read-out and setting: to `CC1(C)Cc2nc(N3CCOCC3)ncc2C(NC2CCCCC2)C1` (stereo unspecified) belongs 0.836. Regarding `Cc1cccc(CN2CCC3(CCCN(Cc4ccccc4F)C3=O)C2)n1` (stereo unspecified), the “bacterial growth OD600” value (polymyxin B 1 µg/mL) amounted to 0.908. For `COc1cccc(C(=O)NC2CCCN(CCc3ccccc3)C2)c1OC` (stereo unspecified), the “bacterial growth OD600” value (polymyxin B 0.75 µg/mL) stood at 0.962.

Take `COc1cccc(-c2cnc(-c3ccncc3)nc2C2CCN(Cc3cccc(F)c3F)CC2)c1`: the “bacterial growth OD600” value (polymyxin B 0.75 µg/mL) worked out at 0.948. On to `Cc1ccc(CN(C)C(=O)c2cc(Cn3ccnc3C(C)C)[nH]n2)o1`, for which the “bacterial growth OD600” value (polymyxin B 1 µg/mL) was determined as 1.12. The same measure, in the same setting: the figure for `COc1ccc(OC2CCN(C3CCCC3)CC2)c(C(=O)NCCCSC)c1` is 0.994; for `CCOC(=O)C1CCN(Cc2nc(Cc3ccccc3F)no2)CC1` it is 0.842.

Consider `O=S(=O)(NCc1cccnc1Oc1ccccc1)c1cccnc1`, for which the “bacterial growth OD600” value (polymyxin B 1 µg/mL) amounted to 1.15. Take `CN(C(=O)c1ccco1)C(Cc1ccccc1Cl)C1CCN(Cc2cccc3ncccc23)CC1` (stereo unspecified): the “bacterial growth OD600” value (polymyxin B 0.75 µg/mL) was found to be 0.801. `COc1ccc(CC(=O)N(C)CC2CCCN(CCc3ccccc3F)C2)cc1OC` (stereo unspecified): the “bacterial growth OD600” value (polymyxin B 1 µg/mL) stood at 0.931. For the compound `Cc1ocnc1C(=O)NC1CC(=O)N(Cc2ccccc2Cl)C1` (stereo unspecified), the “bacterial growth OD600” value (polymyxin B 1 µg/mL) stood at 0.88. For `CCC1CN(Cc2ccc(OC)c(OC)c2OC)Cc2ccc(Cl)cc2O1` (stereo unspecified), for the setting “polymyxin B 0.75 µg/mL”, the “bacterial growth OD600” value was 0.573.

In the case of `O=C(NCC1(N2CCOCC2)CCCC1)c1cc(COc2cccc(F)c2)[nH]n1`, the “bacterial growth OD600” value (polymyxin B 1 µg/mL) was 0.91.

For the compound `CCC(=O)C1CCCN(C(=O)CC2(c3ccc(OC)cc3)CC(=O)N(C3CC3)C2=O)C1` (stereo unspecified), the “bacterial growth OD600” value (polymyxin B 0.75 µg/mL) is 0.913. For `Cc1nc2ccccc2n1Cc1cc(C(=O)NCCOc2cccnc2)n[nH]1`, the “bacterial growth OD600” value (polymyxin B 1 µg/mL) came out at 1.09. `CCOC(=O)CNC(=O)N1CCc2onc(-c3cccc(F)c3)c2C1`: the “bacterial growth OD600” value (polymyxin B 0.75 µg/mL) stood at 0.862. On the same count and under the same terms, to `Cc1nc(N2CCCCCCC2)ncc1C(C)NCc1ccccc1` (stereo unspecified) belongs 0.001; to `Cc1cc2nc(N3CCC(C(=O)NCC4COCCO4)CC3)nc(C)c2cc1C` (stereo unspecified), 0.836. Consider `COc1cccc(CN2CCCC(O)(CN3CCC(C)CC3)C2=O)c1` (stereo unspecified), for which the “bacterial growth OD600” value (polymyxin B 1 µg/mL) came to 0.791. With `C[C@@H]1CN(C2(C(=O)N3CCSCC3)Cc3ccccc3C2)C[C@H](C)O1`, for the setting “polymyxin B 0.75 µg/mL”, the “bacterial growth OD600” value turned out to be 0.846. Same read-out and setting: the figure for `CCc1nc2cc(NC(C)=O)cc(C(=O)N3CCCC(COC)C3)c2n1Cc1cccnc1` (stereo unspecified) is 0.908; for `COC(=O)[C@@H]1CCCN1C(=O)Cc1ccc(N2CCC(NCc3ccc(Cl)s3)CC2)cc1` it is 0.791; for `Cc1ccc(CN(C)C(=O)C2CCCN(C3CCN(C(=O)C4CC4)CC3)C2)cc1` (stereo unspecified) it is 0.775.

These data come from the supplement of paper PMC12889115.
